Assay results as given in publication doi:10.1101/581785.
No constants are given. Whether binding was seen depends on the method and setting. Binding seen in cells or lysates may run through a third protein. Some entries that bind do so weakly or less than the wild type. For some assays here: Tags and fused reporters may be left off the sequences shown.

How the values were obtained:
[1] = molecular target: KHNYN-1-FLAG (human), O15037; assay: co-IP; settings: remark: other sources report otherwise
[2] = molecular target: ZAP-S, endogenous in HEK293T cells (human (endogenous in HEK293T)), Q7Z2W4; assay: co-IP; settings: remark: other sources report otherwise

binding [1] | binding [2] | Binder
binds |  | ZAP-S, endogenous in HEK293T cells, Q7Z2W4-2 1-699 (protein) MADPEVCCFITKILCAHGGRMALDALLQEIALSEPQLCEVLQVAGPDRFVVLETGGEAGITRSVVATTRARVCRRKYCQRPCDNLHLCKLNLLGRCNYSQSERNLCKYSHEVLSEENFKVLKNHELSGLNKEELAVLLLQSDPFFMPEICKSYKGEGRQQICNQQPPCSRLHICDHFTRGNCRFPNCLRSHNLMDRKVLAIMREHGLNPDVVQNIQDICNSKHMQKNPPGPRAPSSHRRNMAYRARSKSRDRFFQGSQEFLASASASAERSCTPSPDQISHRASLEDAPVDDLTRKFTYLGSQDRARPPSGSSKATDLGGTSQAGTSQRFLENGSQEDLLHGNPGSTYLASNSTSAPNWKSLTSWTNDQGARRKTVFSPTLPAARSSLGSLQTPEAVTTRKGTGLLSSDYRIINGKSGTQDIQPGPLFNNNADGVATDITSTRSLNYKSTSSGHREISSPRIQDAGPASRDVQATGRIADDADPRVALVNDSLSDVTSTTSSRVDDHDSEEICLDHLCKGCPLNGSCSKVHFHLPYRWQMLIGKTWTDFEHMETIEKGYCNPGIHLCSVGSYTINFRVMSCDSFPIRRLSTPSSVTKPANSVFTTKWIWYWKNESGTWIQYGEEKDKRKNSNVDSSYLESLYQSCPRGVVPFQAGSRNYELSFQGMIQTNIASKTQKDVIRRPTFVPQWYVQQMKRGPE
 | binds | KHNYN-1-FLAG, O15037 1-678 (protein) MPTWGARPASPDRFAVSAEAENKVREQQPHVERIFSVGVSVLPKDCPDNPHIWLQLEGPKENASRAKEYLKGLCSPELQDEIHYPPKLHCIFLGAQGFFLDCLAWSTSAHLVPRAPGSLMISGLTEAFVMAQSRVEELAERLSWDFTPGPSSGASQCTGVLRDFSALLQSPGDAHREALLQLPLAVQEELLSLVQEASSGQGPGALASWEGRSSALLGAQCQGVRAPPSDGRESLDTGSMGPGDCRGARGDTYAVEKEGGKQGGPREMDWGWKELPGEEAWEREVALRPQSVGGGARESAPLKGKALGKEEIALGGGGFCVHREPPGAHGSCHRAAQSRGASLLQRLHNGNASPPRVPSPPPAPEPPWHCGDRGDCGDRGDVGDRGDKQQGMARGRGPQWKRGARGGNLVTGTQRFKEALQDPFTLCLANVPGQPDLRHIVIDGSNVAMVHGLQHYFSSRGIAIAVQYFWDRGHRDITVFVPQWRFSKDAKVRESHFLQKLYSLSLLSLTPSRVMDGKRISSYDDRFMVKLAEETDGIIVSNDQFRDLAEESEKWMAIIRERLLPFTFVGNLFMVPDDPLGRNGPTLDEFLKKPARTQGSSKAQHPSRGFAEHGKQQQGREEEKGSGGIRKTRETERLRRQLLEVFWGQDHKVDFILQREPYCRDINQLSEALLSLNF
